In all, about 360,000 compounds went through this assay and about 7,500 (2.1%) were called active. This list was built around the results that the source calls inconclusive (neither active nor inactive); the mix of calls is not that of the screen. Calls come from the whole dose curve; as a rule, active = well fitted inhibition curve with a large enough effect; inconclusive = small, poorly fitted or top-dose-only effect, or effect the other way; inactive = flat fitted curve, though single readings scatter. Where the call is inconclusive, the potency comes from a doubtful curve fit.
Assay: Nrf2 qHTS screen for inhibitors; note: nearly all actives have a fitted effect of over 60% in size
Settings: A549 ARE-Fluc reporter, luciferase luminescence, 18-24 h; activity change, negative = inhibition: at 46 µM (top of the series)
Procedure, shortened: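 A549 ARE_Fluc cells (5000/well, 5% FBS OPTI-MEM) pre-incubated 2 h, then treated with compounds 18-24 h at 37C/5% CO2 in concentration-response. CellTiter-Fluor viability read first; BugLite luciferase luminescence after 15 min at room temperature gives Nrf2 activity.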
With `Cc1sc(NC(=O)c2cccs2)nc1-c1ccccc1` the Potency was inconclusive: 18.4 µM [falling, single point]. For `COc1ccc(NCc2ccccc2-c2nnc(-c3ccccc3)o2)cc1Cl`, the Potency was inconclusive: 13 µM [activator, partial curve]. For `COc1ccc(/C=C/c2nc(N)nc(-c3ccccc3O)n2)cc1OC`, the Potency was inconclusive: 29.1 µM [falling, single point]. With `O=c1c(Cl)c(N2CCCCC2)cnn1-c1nc2ccccc2[nH]1` the Potency was active: 16.4 µM. In the case of `CN1CCN(c2ncnc3c2cnn3-c2ccc(Cl)cc2)CC1`, the Potency was inconclusive: 0.731 µM [activator, full curve]. For `O=C(Nc1cccc(C(F)(F)F)c1)C(=O)N1CCCCC1`, the Potency was inconclusive: 5.8 µM [activator, full curve]. With `Cc1ccc(NC(=O)CSc2nc(=O)n(Cc3ccncc3)c3c2CCC3)c(C)c1` the Potency was inconclusive: 4.61 µM [activator, partial curve, poor fit]. For `CN1C(=O)Cc2cc(S(=O)(=O)NCc3c(F)cccc3Cl)ccc21`, the Potency was inconclusive: 25.9 µM [falling, single point]. For `CCC(O)(CC)C(=O)NN(C(=O)CCl)c1ccccc1`, the Potency was inconclusive: 18.4 µM [falling, single point]. In the case of `CCCCc1cc(=O)oc2cc(C)cc(OCC(=O)Nc3cccnc3)c12`, the Potency was inconclusive: 23.1 µM [falling, single point]. In the case of `CCCC(=O)N1CCN(c2nnc(-c3ccccc3)c3ccccc23)CC1`, the “activity change, negative = inhibition” value was inactive: -11%. With `O=C(OCC(=O)N1CCc2ccccc21)c1c2c(nc3ccccc13)CCCC2` the Potency was inconclusive: 20.6 µM [falling, single point]. With `Cc1cccc(-n2cnc3cc(C(=O)N4CCCCC4)ccc32)c1` the Potency was inconclusive: 18.4 µM [activator, partial curve, poor fit]. For `Cc1cc(C)c(C)c(SCC(=O)Nc2oc(C)c3c(C)n[nH]c(=O)c23)c1C`, the Potency was inconclusive: 0.0326 µM [falling, full curve, poor fit]. For `CS(=O)(=O)N1CCN(C/C=C/c2ccccc2)CC1`, the Potency was inconclusive: 4.61 µM [falling, partial curve]. For `Cc1ccc(-n2nc3cc(C)c(NC(=O)c4ccc(-c5ccccc5)o4)cc3n2)cc1`, the Potency was inconclusive: 11.6 µM [activator, partial curve]. With `O=C(c1ccc(Cn2cc(Br)cn2)o1)N1N=C(C(F)F)CC1(O)C(F)F` (stereo not drawn) the Potency was inconclusive: 16.4 µM [falling, partial curve, poor fit]. For `Cc1ccc(SC[C@H](c2ccccc2)N2CCN(CC(C)C)CCC2=O)cc1`, the Potency was inconclusive: 23.1 µM [activator, single point]. With `COc1ccc(/C=C/C(=O)N2CCNC(=O)C2)c(OC)c1` the Potency was inconclusive: 29.1 µM [activator, single point]. For `O=C1c2ccccc2C(=O)N1CCSC(=S)N1CCOCC1`, the Potency was inconclusive: 1.84 µM [activator, full curve, poor fit]. With `CC(C)(C)c1csc(NC(=O)CS(=O)(=O)c2ccccc2)n1` the Potency was inconclusive: 29.1 µM [activator, single point]. For `CCCc1ccc(C2C3=C(CC(C)(C)CC3=O)NC3=C2C(=O)c2ccccc23)cc1` (stereo not drawn), the Potency was active: 8.2 µM. With `Cc1ccc(Cl)cc1NC(=O)Cn1c(=O)cc(C)c2c(C)nn(C)c21` the Potency was inconclusive: 13 µM [falling, partial curve]. With `COc1ccc(NC(=O)Nc2cccc3c2O[C@H](CN(C)S(=O)(=O)c2ccc(F)cc2)[C@@H](C)CN([C@H](C)CO)C3=O)cc1` the Potency was inconclusive: 25.9 µM [falling, single point]. With `O=C(COC(=O)CC1CCCC1)Nc1ccc(Cl)cc1` the “activity change, negative = inhibition” value was inactive: -0.0135%. With `COc1ccccc1C(=O)N1CCN(C(=O)c2ccncc2)CC1` the Potency was inconclusive: 0.0146 µM [activator, full curve, poor fit]. With `C=CCn1c(COc2cc(C)ccc2C(C)C)nnc1SCC(=O)c1c(N)n(C)c(=O)n(C)c1=O` the Potency was inconclusive: 0.146 µM [falling, full curve, poor fit]. With `O=C(NCCc1c[nH]c2ccccc12)C(=O)NCC1OCCN1S(=O)(=O)c1cc(F)ccc1F` (stereo not drawn) the Potency was inconclusive: 29.1 µM [falling, single point]. With `CCOC(=O)N1CCC(NC(=O)c2cccc3c2C(=O)N(c2ccc(OC)cc2)C3)CC1` the Potency was inconclusive: 29.1 µM [falling, single point]. With `Cc1c(C(=O)OCC(=O)Nc2ccc(C(N)=O)cc2)cccc1[N+](=O)[O-]` the Potency was inconclusive: 8.2 µM [falling, partial curve, poor fit]. For `COc1cccc(/C=N/n2cnc3c(cnn3-c3ccccc3)c2=O)c1`, the Potency was inconclusive: 6.51 µM [falling, full curve, poor fit]. In the case of `Cc1cc(C)c(S(=O)(=O)Nc2ccc3oc(C)c(C(=O)OC(C)C)c3c2)cc1C`, the Potency was inconclusive: 29.1 µM [falling, single point]. In the case of `CN(C)c1ccc(/C=C/c2nnnn2-c2ccccc2)cc1`, the Potency was inconclusive: 3.26 µM [activator, single point]. In the case of `COc1ccc2ccc3c(c2c1)N=CC1(O3)N(C)c2ccccc2C1(C)C` (stereo not drawn), the Potency was inconclusive: 16.4 µM [falling, partial curve, poor fit]. In the case of `O=C(Nc1ccccc1N1CCCCC1)c1ccc(F)c(S(=O)(=O)N2CCOCC2)c1`, the Potency was inconclusive: 18.4 µM [falling, single point]. For `CCN(CC(=O)NCc1cccs1)CC(=O)Nc1ccccc1C`, the “activity change, negative = inhibition” value was inactive: 2.02%. With `Cc1ccc2nc(-c3ccc(NC(=O)Cc4ccccc4)cc3)sc2c1` the Potency was inconclusive: 2.91 µM [activator, full curve]. With `CCN(CC)CCNC(=O)CCn1c(=O)c2cccn2c2cccnc21` the “activity change, negative = inhibition” value was inactive: 6.68%. In the case of `Cc1ccc(NC(=O)CN(Cc2ccco2)Cc2ccccc2O)cc1C`, the Potency was inconclusive: 29.1 µM [falling, single point]. In the case of `OC(CCc1cccc(Cl)c1)c1cccs1` (stereo not drawn), the Potency was inconclusive: 20.6 µM [activator, partial curve, poor fit]. In the case of `COc1ccc(C(=O)CSc2nnc(COc3ccccc3)n2Cc2ccco2)cc1`, the Potency was inconclusive: 29.1 µM [falling, single point]. With `Cc1ccc(S(=O)(=O)N2[C@@H](c3ccc(F)cc3)C(C(=O)O)=CC[C@H]2c2cccc(C)c2)cc1` the Potency was inconclusive: 10.3 µM [falling, partial curve, poor fit]. For `COc1ccc2c(c1)C1C=CCC1C(c1cc3c(cc1Br)OCO3)N2` (stereo not drawn), the Potency was inconclusive: 8.2 µM [falling, partial curve, poor fit]. With `COc1ccc(NS(=O)(=O)c2cccc(N/C(=N\S(=O)(=O)c3ccccc3)c3ccc(F)cc3)c2)cc1` the Potency was inconclusive: 23.1 µM [falling, single point]. For `CN(C)c1nc(Nc2ccc(Cl)cc2)nc(OCC#N)n1`, the Potency was inconclusive: 11.2 µM [falling, single point]. In the case of `CC(C)C1Nc2c(O)cc(Cl)c([N+](=O)[O-])c2C2C=CCC21` (stereo not drawn), the Potency was inconclusive: 32.6 µM [falling, single point]. For `Cn1c(SCC(=O)C(C)(C)C)nnc1-c1ccc(F)cc1`, the Potency was inconclusive: 23.1 µM [activator, single point]. For `CCOC(=O)COc1c(-c2ccc(OC)cc2)oc2ccccc2c1=O`, the “activity change, negative = inhibition” value was inactive: -7.67%. With `CS(=O)(=O)N1CCc2cc(-c3csc(NC(=O)Cc4cccs4)n3)ccc21` the Potency was active: 18.4 µM. For `COC(OC)c1ccnc(-c2ccc(OC(C)=O)cc2)n1`, the Potency was inconclusive: 29.1 µM [activator, single point]. With `Cc1ccc(C(=O)N2CCN(Cc3ccccc3)CC2)o1` the “activity change, negative = inhibition” value was inactive: -0.406%. With `CC(O)CNc1nc2sc3c(c2c(=O)n1Cc1ccco1)CCCCC3` (stereo not drawn) the Potency was inconclusive: 11.6 µM [activator, partial curve, poor fit]. In the case of `O=C1OC(Cc2ccccn2)C(O)=C1C1=NCCCN1` (stereo not drawn), the Potency was inconclusive: 16.4 µM [activator, partial curve, poor fit]. In the case of `O=C(N/N=C/c1ccccn1)c1cc(-c2ccc(Br)s2)[nH]n1`, the Potency was inconclusive: 29.1 µM [falling, single point]. For `CC12CCC(=O)CC1CCC1C2CCC2(C)C1CCC2(O)C(=O)CO` (stereo not drawn), the Potency was inconclusive: 20.6 µM [falling, single point]. For `Cc1cc(N/N=C/c2ccc(O)cc2O)nc(-c2ccccc2O)n1`, the Potency was inconclusive: 29.1 µM [falling, single point]. With `CC(=O)Nc1ccc(N2CCOCC2)c(C(=O)Nc2cccc(C)c2)c1` the Potency was inconclusive: 5.17 µM [falling, partial curve, poor fit]. With `CCCc1ccc(-c2ccc(F)c(N)c2)nc1` the Potency was inconclusive: 32.6 µM [falling, single point]. With `CSC1SCC2C(=O)N(C)C(C(C)C)C(=O)OCC(NC(=O)c3cnc4ccccc4n3)C(=O)NC(C)C(=O)N(C)C1C(=O)N(C)C(C(C)C)C(=O)OCC(NC(=O)c1cnc3ccccc3n1)C(=O)NC(C)C(=O)N2C` (stereo not drawn) the Potency was active: 0.0065 µM. For `CCCCCCOc1ccc(/C=C/C(=O)Nc2sc3c(c2C(=O)OC)CCC3)cc1OC`, the “activity change, negative = inhibition” value was inactive: 1.53%. With `N=c1ccn(Cc2ccc([N+](=O)[O-])cc2)cc1` the Potency was inconclusive: 29.1 µM [falling, single point]. For `Cc1ccc(-n2cc(CN3CCNC(=O)CC3)c(-c3cccc(C)c3)n2)cc1`, the Potency was inconclusive: 16.4 µM [falling, partial curve, poor fit]. For `Oc1ccc(-c2nc(-c3ccc(F)cc3)c(-c3ccncc3)[nH]2)cc1`, the Potency was inconclusive: 7.31 µM [falling, partial curve, poor fit].

From PubChem BioAssay AID504444 (National Center for Advancing Translational Sciences (NCATS), 2011)
% is set by controls: 0 for no effect and ±100 for the full control effect; potency is the fitted concentration of half-maximal effect.
